Experimental data: the supplement of paper PMC10849652
This is one part of the list.

Chains of the proteins cited; added tags and fusions are not shown. Lines headed by an entry give the natural chain unless they say otherwise; changes in a name come on top.
UniProt P55209: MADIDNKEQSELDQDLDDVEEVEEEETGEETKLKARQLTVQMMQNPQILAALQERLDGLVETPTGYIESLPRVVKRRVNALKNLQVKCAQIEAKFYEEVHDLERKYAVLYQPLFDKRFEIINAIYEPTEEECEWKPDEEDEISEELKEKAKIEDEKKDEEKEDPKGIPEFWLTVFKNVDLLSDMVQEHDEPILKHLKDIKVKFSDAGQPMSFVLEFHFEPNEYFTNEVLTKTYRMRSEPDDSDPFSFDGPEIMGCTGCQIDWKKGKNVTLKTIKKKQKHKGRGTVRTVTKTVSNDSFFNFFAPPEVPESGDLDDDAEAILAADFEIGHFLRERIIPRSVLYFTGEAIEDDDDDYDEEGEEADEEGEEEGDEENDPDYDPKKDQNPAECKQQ
UniProt Q6P582, whole entry, looked up: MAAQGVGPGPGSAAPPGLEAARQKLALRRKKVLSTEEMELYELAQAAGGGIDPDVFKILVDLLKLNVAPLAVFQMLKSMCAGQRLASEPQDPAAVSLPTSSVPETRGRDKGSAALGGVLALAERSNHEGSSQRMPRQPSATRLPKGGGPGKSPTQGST
UniProt Q96H55, whole entry, looked up: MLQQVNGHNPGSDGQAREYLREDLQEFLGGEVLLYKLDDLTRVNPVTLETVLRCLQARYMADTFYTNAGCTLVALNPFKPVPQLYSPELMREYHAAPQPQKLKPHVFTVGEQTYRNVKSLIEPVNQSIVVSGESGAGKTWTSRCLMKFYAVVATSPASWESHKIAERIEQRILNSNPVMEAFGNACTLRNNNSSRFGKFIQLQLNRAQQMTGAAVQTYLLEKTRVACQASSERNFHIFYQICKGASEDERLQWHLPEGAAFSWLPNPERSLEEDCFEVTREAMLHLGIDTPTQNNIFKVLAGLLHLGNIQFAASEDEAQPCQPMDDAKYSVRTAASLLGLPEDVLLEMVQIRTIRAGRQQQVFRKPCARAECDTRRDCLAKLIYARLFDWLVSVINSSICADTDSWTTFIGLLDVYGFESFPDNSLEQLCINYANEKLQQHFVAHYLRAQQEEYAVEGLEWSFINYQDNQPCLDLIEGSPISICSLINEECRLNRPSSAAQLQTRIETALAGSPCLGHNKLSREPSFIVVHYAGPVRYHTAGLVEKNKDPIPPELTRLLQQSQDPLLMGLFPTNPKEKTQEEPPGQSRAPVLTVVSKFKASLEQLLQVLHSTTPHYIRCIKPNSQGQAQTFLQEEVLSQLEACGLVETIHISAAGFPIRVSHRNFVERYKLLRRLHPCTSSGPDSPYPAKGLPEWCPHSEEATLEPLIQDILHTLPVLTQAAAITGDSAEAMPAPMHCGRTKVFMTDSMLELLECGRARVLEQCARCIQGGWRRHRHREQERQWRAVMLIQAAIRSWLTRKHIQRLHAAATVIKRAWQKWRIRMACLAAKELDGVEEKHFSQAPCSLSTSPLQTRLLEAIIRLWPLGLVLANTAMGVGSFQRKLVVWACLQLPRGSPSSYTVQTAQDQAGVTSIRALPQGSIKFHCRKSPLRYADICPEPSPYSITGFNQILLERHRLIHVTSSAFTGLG
UniProt Q9BPX3, whole entry, looked up: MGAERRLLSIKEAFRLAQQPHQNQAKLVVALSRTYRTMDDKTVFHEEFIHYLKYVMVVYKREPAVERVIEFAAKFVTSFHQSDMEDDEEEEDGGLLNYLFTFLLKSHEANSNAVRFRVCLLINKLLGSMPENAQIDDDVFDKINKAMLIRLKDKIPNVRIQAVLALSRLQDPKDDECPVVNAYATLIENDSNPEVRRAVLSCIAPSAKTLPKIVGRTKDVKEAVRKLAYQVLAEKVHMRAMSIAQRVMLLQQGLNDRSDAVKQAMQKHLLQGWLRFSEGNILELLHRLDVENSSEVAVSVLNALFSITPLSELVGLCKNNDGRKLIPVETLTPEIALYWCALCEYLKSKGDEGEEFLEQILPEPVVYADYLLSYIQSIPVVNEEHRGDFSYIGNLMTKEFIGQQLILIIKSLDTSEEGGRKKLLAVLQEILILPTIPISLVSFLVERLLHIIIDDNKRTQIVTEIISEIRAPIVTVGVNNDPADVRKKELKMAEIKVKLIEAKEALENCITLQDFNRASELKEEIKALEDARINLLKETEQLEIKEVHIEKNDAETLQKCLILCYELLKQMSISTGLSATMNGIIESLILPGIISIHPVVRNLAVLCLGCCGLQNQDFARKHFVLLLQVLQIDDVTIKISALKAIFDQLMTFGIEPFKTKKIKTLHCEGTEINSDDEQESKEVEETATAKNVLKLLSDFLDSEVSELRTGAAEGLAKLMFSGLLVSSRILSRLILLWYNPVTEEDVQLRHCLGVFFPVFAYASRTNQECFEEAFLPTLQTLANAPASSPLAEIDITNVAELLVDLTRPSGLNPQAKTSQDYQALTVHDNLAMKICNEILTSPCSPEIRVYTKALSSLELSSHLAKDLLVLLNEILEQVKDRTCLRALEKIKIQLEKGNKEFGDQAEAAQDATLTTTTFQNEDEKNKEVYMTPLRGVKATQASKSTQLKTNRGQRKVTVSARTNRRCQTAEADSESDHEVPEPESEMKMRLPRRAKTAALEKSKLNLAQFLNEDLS
UniProt P43490: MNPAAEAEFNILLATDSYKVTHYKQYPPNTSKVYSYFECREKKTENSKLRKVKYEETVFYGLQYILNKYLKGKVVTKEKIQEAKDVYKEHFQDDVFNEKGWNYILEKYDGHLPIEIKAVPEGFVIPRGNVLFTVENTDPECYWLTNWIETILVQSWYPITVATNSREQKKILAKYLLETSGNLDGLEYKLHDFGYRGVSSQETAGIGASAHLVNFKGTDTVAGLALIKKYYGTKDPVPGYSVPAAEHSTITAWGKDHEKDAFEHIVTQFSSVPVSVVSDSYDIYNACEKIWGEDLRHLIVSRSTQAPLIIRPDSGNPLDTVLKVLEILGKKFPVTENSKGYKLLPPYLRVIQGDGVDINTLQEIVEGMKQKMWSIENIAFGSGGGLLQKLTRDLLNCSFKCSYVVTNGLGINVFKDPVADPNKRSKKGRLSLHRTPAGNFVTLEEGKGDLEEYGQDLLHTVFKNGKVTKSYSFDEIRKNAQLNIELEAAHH
UniProt O60934: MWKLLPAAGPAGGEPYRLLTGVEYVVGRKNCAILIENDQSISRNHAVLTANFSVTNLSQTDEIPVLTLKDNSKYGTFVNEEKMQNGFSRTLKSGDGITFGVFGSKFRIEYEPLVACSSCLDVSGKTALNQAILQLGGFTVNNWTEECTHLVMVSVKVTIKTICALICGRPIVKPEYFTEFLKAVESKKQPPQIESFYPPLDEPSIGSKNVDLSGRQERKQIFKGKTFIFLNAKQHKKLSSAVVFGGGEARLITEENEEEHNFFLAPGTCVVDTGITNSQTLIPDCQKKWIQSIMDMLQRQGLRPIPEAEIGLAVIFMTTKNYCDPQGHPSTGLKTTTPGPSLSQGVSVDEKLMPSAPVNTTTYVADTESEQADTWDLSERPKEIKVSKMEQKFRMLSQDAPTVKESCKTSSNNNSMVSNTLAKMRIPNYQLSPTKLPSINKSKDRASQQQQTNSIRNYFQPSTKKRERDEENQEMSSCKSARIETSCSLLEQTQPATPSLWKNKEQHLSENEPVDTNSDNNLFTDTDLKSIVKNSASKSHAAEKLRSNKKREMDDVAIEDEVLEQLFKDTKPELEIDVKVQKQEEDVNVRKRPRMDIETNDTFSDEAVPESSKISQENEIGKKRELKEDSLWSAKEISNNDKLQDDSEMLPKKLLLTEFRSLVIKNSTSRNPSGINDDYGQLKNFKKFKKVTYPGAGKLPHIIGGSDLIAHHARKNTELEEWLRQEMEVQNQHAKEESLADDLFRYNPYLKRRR
UniProt Q9BTX1: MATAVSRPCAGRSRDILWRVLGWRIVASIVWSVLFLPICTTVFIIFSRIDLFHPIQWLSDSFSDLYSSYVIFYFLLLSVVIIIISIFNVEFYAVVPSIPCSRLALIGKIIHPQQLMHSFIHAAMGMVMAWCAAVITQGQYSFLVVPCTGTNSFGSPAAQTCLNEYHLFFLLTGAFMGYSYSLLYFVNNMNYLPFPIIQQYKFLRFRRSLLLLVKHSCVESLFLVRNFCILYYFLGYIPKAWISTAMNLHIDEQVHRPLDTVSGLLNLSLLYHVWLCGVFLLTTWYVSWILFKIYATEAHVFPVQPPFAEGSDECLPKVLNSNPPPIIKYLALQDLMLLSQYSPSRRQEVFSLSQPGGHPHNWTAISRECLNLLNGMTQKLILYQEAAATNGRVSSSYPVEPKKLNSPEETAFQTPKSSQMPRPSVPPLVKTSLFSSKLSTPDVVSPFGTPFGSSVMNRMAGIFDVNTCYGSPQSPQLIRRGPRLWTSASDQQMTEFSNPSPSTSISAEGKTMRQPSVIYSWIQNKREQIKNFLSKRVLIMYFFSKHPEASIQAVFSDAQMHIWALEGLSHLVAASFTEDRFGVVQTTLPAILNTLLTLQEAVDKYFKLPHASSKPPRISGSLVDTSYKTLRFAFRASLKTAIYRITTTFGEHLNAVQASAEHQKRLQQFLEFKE
UniProt Q86XI2: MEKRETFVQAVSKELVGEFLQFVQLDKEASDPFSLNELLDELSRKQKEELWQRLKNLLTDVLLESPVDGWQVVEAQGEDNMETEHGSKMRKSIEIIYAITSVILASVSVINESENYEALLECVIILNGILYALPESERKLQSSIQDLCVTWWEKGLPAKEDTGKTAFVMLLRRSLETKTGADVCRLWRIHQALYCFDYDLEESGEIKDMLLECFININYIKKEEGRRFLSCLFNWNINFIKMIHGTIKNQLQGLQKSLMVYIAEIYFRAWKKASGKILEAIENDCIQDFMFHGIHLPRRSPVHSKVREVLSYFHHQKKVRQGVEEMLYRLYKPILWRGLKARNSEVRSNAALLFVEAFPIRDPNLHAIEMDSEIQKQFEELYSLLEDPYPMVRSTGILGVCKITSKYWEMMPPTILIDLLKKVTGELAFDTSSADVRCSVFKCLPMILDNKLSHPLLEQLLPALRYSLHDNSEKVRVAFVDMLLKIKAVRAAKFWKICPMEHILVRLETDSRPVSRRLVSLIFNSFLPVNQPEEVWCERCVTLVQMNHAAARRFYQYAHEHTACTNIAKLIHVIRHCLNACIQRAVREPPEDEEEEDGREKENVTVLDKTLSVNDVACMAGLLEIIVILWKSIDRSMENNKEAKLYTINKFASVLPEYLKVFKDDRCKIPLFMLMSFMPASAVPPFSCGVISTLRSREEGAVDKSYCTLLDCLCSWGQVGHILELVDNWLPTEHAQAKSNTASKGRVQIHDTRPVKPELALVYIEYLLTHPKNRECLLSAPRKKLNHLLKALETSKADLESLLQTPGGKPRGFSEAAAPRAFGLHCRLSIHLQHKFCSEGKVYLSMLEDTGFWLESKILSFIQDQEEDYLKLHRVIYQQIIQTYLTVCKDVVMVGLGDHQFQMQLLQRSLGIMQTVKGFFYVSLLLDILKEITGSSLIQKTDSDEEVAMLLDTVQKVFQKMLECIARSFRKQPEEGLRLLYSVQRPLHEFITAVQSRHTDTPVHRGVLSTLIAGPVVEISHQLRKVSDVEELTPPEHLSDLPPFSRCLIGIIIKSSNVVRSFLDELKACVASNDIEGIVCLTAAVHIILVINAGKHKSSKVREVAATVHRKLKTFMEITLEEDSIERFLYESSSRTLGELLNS

How the values were obtained:
Assay in all cases: log2 fold change, soluble protein after heating vs DMSO (PISA); higher = thermal stabilisation; K562 lysate, 10 uM; active = over 0.2 and 3.5 SD of the protein, either way, in both replicates (recomputed)
[1] = compound: C1=CC=C(C=C1)[C@H](COC2=CC3=C(C=C2)NC(=O)N3)NC(=O)C4=CC=CN(C4=O)CC5=CC(=C(C=C5)F)F
Method in brief: (§1)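 Thermal stability, expressed as log-two fold change relative to solvent controls, is given from duplicates. Crude K562 extract in PBS pH 7.4 with 1 mM MgCl2, at 1 mg/mL protein, was treated with 10 μM compound for 30 min and heated in aliquots for 3 min across 48°C-58°C. After pooling, adjustment to 0.5% NP-40 at 4°C and centrifugation at 21,000xg for 90 min, supernatant protein was measured by TMTpro 16plex LC-MS/MS with channel sums equalised.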

[2] = compound: CC1=C(SC2=C1C(=N[C@H](C3=NN=C(N32)C)CC(=O)N)C4=CC=C(C=C4)Cl)C
Method in brief: as §1

[3] = compound: CC1=C2C(=CC=C1)N=C(N(C2=O)C3=CC=CC=C3C)CN4C=NC5=C(N=CN=C54)N
Method in brief: as §1

[4] = compound: Cc1sc2c(c1C)C(c1ccc(Cl)cc1)=N[C@@H](CC(=O)OC(C)(C)C)c1nnc(C)n1-2
Method in brief: as §1

[5] = compound: c1ccc([C@@H]2C[C@H]2NC2CCNCC2)cc1
Method in brief: as §1

Measured: log2 fold change

NAP1L1 isoform 3 (UniProt P55209)
inactive: [1] -0.107 | [2] 0.099 | [3] 0.082 | [4] -0.124 | [5] -0.187

MZT2A (UniProt Q6P582)
inactive: [1] 0.012 | [2] -0.009 | [3] 0.06 | [4] 0.101 | [5] 0.064

MYO19 (UniProt Q96H55)
inactive: [1] -0.117 | [2] 0.128 | [3] 0.003 | [4] 0.008 | [5] 0.13

NCAPG (UniProt Q9BPX3)
inactive: [1] -0.031 | [2] 0.013 | [3] -0.007 | [4] 0.013 | [5] 0.03

NAMPT (UniProt P43490)
inactive: [1] 0.013 | [2] 0.009 | [3] -0.033 | [4] 0.003 | [5] 0.003

NBN (UniProt O60934)
inactive: [1] 0.074 | [2] 0.046 | [3] 0.003 | [4] -0.011 | [5] 0.059

MVB12A (UniProt Q96EY5)
inactive: [1] 0.006 | [2] 0.032 | [3] 0.017 | [4] 0.032 | [5] 0.059

NDC1 (UniProt Q9BTX1)
inactive: [1] 0.001 | [2] -0.055 | [3] 0.003 | [4] 0.02 | [5] -0.172

NCAPG2 (UniProt Q86XI2)
inactive: [1] -0.074 | [2] -0.04 | [3] 0.019 | [4] 0.025 | [5] 0.001

Looked up one by one from the entries so far (2):
NBN (UniProt O60934)
inactive: [1] 0.074 | [2] 0.046 | [3] 0.003 | [4] -0.011 | [5] 0.059

NAMPT (UniProt P43490)
inactive: [1] 0.013 | [2] 0.009 | [3] -0.033 | [4] 0.003 | [5] 0.003
